Data taken from US20170157212A1, “CDK MODULATORS AND METHODS FOR THE TREATMENT OF CANCER” (Salk Institute for Biological Studies, priority 2015, published 2017).
At least one structure is not confirmed: it was looked up by name or label, or the drawing left a doubt.

Test system: CHK1, RPL26, TMA7 gene promoters in U2OS cells
Assay: Chromatin immunoprecipitation (ChIP) at CDK12 target gene promoters
Format: cell-based, human
Description: Briefly, 5×10^6 cells were twice washed with ice-cold PBS and serially cross-linked with 2 mM DSG (Disuccinimidylglutarate) for 20 min and 1% (v/v) formaldehyde for 10 min at room temperature. The cross-linking reaction was stopped by adding glycine to a final concentration of 0.125 M for 10 min at room temperature. Cells were washed twice with cold PBS. […] ChIP DNA is analyzed by SYBR® Green master mixes (Life Technologies) using described primer sets. qPCR is carried out in the ABI7300 (Applied Biosystems) with a 10 min DNA denaturation step at 95° C., followed by 40 cycles of 15 s at 95° C., 60 s at 60° C. […]
ChIP experiments were carried out as described in the previous report. […] ChIP DNA is analyzed by SYBR® Green master mixes (Life Technologies) using described primer sets. qPCR is carried out in the ABI7300 (Applied Biosystems) with a 10 min DNA denaturation step at 95° C., followed by 40 cycles of 15 s at 95° C., 60 s at 60° C. […]

## CO[C@H]1C[C@@H]2CC[C@@H](C)[C@@](O)(O2)C(=O)C(=O)N2CCCC[C@H]2C(=O)O[C@H]([C@H](C)C[C@@H]2CC[C@@H](O)[C@H](OC)C2)CC(=O)[C@H](C)/C=C(\C)[C@@H](O)[C@@H](OC)C(=O)[C@H](C)C[C@H](C)/C=C/C=C/C=C/1C [rapamycin]
  4E-BP1 phosphorylation and occupancy at target gene promoters: affected
  RNAPII-Ser2P levels at target gene promoters: without affecting
